# The list shows a part of the results.
# Target: T1, OsSMF1 (Oryza sativa, UniProt Q6ZLB0 1-436)
# T1 sequence: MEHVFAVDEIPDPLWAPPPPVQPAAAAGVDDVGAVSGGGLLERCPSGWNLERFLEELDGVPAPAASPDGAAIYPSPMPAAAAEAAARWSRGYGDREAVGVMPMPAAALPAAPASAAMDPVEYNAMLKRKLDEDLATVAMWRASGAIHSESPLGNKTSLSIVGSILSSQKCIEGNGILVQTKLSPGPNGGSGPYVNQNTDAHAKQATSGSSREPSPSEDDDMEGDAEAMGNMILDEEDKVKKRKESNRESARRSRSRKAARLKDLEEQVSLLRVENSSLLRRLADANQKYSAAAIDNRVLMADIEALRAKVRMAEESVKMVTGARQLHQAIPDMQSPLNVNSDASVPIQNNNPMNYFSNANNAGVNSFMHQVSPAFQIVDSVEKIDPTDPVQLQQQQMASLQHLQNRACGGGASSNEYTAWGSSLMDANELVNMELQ
# Assay: protein-binding microarray (RPBM); PBS, 2% BSA, 51.3 ng/ul salmon testes DNA, 50 uM zinc acetate, 200 nM TF, 25 C, 1 h; high values mean tight binding
# Settings: protein: recombinant; tags: N-terminal polyhistidine and DsRed monomer fusion (pET32a); chain copies: 2; label: CyDye5-dUTP incorporated in the synthesized complementary strand; 3' TTTTT single-stranded linker to array surface; dsDNA, one strand shown
# In short: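 The binding signal is fluorescence intensity per feature, in arbitrary units, read on an Axon 4000B scanner. Polyhistidine- and DsRed-tagged transcription factors (N-terminal fusions) from E. coli BL21-CodonPlus were purified on Ni–NTA and applied at 200 nM for 1 h at 25 °C to a double-stranded, BSA-blocked custom Agilent array in buffer with 50 µM zinc acetate.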
row,Sequence,binding signal
1,GGGGATCGGAGGGTGGGGATACGCATGGTGGATGGTAGTGCGGAGTCACCTAGTGCAG,3880 fluorescence intensity (a.u.)
2,ACAACACCACACAATGGAAAGCCGGGCCCACTTTATGACGCGGAGTCACCTAGTGCAG,3280 fluorescence intensity (a.u.)
3,ACGGGGACGCAGAGTACAGCGCATAGTACGTGCAGAGGCTCGGAGTCACCTAGTGCAG,3970 fluorescence intensity (a.u.)
4,ATTTGTAGTCATTATGTGTTAAATTAAATTGTTGAAGCCACGGAGTCACCTAGTGCAG,3460 fluorescence intensity (a.u.)
5,GCAAGAAGCGATCGATTCGGCGTGTGCTGGATCGGTTTCCCGGAGTCACCTAGTGCAG,3170 fluorescence intensity (a.u.)
6,GTGATATCATCAAGACCCCTTTTCAATGTCAGCATCTTTCCGGAGTCACCTAGTGCAG,4660 fluorescence intensity (a.u.)
7,GCCTGGGCTGTGAGTGCGGCACGTGGGCTGGCACGGCACGCGGAGTCACCTAGTGCAG,3390 fluorescence intensity (a.u.)
8,TGGGAATAGAGAAGATTAGCTTGCCACCTCATCAATATTTCGGAGTCACCTAGTGCAG,8450 fluorescence intensity (a.u.)
9,GGGATCTTCACCTTATCAGCCTCACACCGTCAGTCCGCGGCGGAGTCACCTAGTGCAG,3360 fluorescence intensity (a.u.)
10,CTATGATAAAGGTGAGATACATGATAGATGGACACCGCATCGGAGTCACCTAGTGCAG,22000 fluorescence intensity (a.u.)
11,GAACTCCAAGACGTAGTGTGTGTATGACAGGTGGGACCAGCGGAGTCACCTAGTGCAG,3190 fluorescence intensity (a.u.)
12,AGTCGTGAGCCCATGACTGTTATACCCATGAGACCATGACCGGAGTCACCTAGTGCAG,3730 fluorescence intensity (a.u.)
13,CCTAAATTATCGTGGAACTGTACGTCAGTGTAATAATTGTCGGAGTCACCTAGTGCAG,3910 fluorescence intensity (a.u.)
14,CGCGAGCAGAGGCAGAGGCAGCCGCAGCCAGCCGCCGGTCCGGAGTCACCTAGTGCAG,3570 fluorescence intensity (a.u.)
15,GGGATGGATGGAGGCGGCGGTGCTGAGGTGGTGGGACTGTCGGAGTCACCTAGTGCAG,4990 fluorescence intensity (a.u.)
16,GCGCGCGCGTTCTCTAATCGAAGTCGATAGGATAGGAGGACGGAGTCACCTAGTGCAG,36900 fluorescence intensity (a.u.)
17,GCTTTGGTCGGTTGGGGTGGGCTGGATGCGCCTCCGCGCTCGGAGTCACCTAGTGCAG,3960 fluorescence intensity (a.u.)
18,TTGATACTTCCAAGTCGCGCGTGATTTGTCAGCTGTTAGTCGGAGTCACCTAGTGCAG,4260 fluorescence intensity (a.u.)
19,ACAAGTATCGCAACTGTTTGACTCAGGCCACATCTCCACTCGGAGTCACCTAGTGCAG,4740 fluorescence intensity (a.u.)
20,CTCCTTCAACATCGTCATCATCACCATCATCACAAGGTTGCGGAGTCACCTAGTGCAG,5150 fluorescence intensity (a.u.)
21,GTATATATGTATTGACCCACGCTTACGTGTAGGGCAGTACCGGAGTCACCTAGTGCAG,11100 fluorescence intensity (a.u.)

# Reformatted: results already given.
row	Sequence	binding signal
2	ACAACACCACACAATGGAAAGCCGGGCCCACTTTATGACGCGGAGTCACCTAGTGCAG	3280 fluorescence intensity (a.u.)
3	ACGGGGACGCAGAGTACAGCGCATAGTACGTGCAGAGGCTCGGAGTCACCTAGTGCAG	3970 fluorescence intensity (a.u.)
4	ATTTGTAGTCATTATGTGTTAAATTAAATTGTTGAAGCCACGGAGTCACCTAGTGCAG	3460 fluorescence intensity (a.u.)
5	GCAAGAAGCGATCGATTCGGCGTGTGCTGGATCGGTTTCCCGGAGTCACCTAGTGCAG	3170 fluorescence intensity (a.u.)
6	GTGATATCATCAAGACCCCTTTTCAATGTCAGCATCTTTCCGGAGTCACCTAGTGCAG	4660 fluorescence intensity (a.u.)
7	GCCTGGGCTGTGAGTGCGGCACGTGGGCTGGCACGGCACGCGGAGTCACCTAGTGCAG	3390 fluorescence intensity (a.u.)
8	TGGGAATAGAGAAGATTAGCTTGCCACCTCATCAATATTTCGGAGTCACCTAGTGCAG	8450 fluorescence intensity (a.u.)
9	GGGATCTTCACCTTATCAGCCTCACACCGTCAGTCCGCGGCGGAGTCACCTAGTGCAG	3360 fluorescence intensity (a.u.)
10	CTATGATAAAGGTGAGATACATGATAGATGGACACCGCATCGGAGTCACCTAGTGCAG	22000 fluorescence intensity (a.u.)

# The results go on.

row,Sequence,binding signal
1,TAAAGATTAAGATTTTCGTGTCACGCTTTTCAAACTGCTACGGAGTCACCTAGTGCAG,3210 fluorescence intensity (a.u.)
2,ATGTACTTAGCCACATCACTATTGTTGTGATTTTAAATGGCGGAGTCACCTAGTGCAG,7860 fluorescence intensity (a.u.)
3,TGACACGTAAGCGCCACGTCAATGCTACGTCAGATGAAGACGGAGTCACCTAGTGCAG,31800 fluorescence intensity (a.u.)
4,TCGCGCTGTCTGCCTGTATCTGACCAGGTCGATCTACCTGCGGAGTCACCTAGTGCAG,4020 fluorescence intensity (a.u.)
5,TCATGTGTGCTTATTTCACCCTGGCATAACCAATTTTCTACGGAGTCACCTAGTGCAG,3530 fluorescence intensity (a.u.)
6,ATTTAACTATTTGCCACTCTTGTGACATGGCAATTAACGACGGAGTCACCTAGTGCAG,6140 fluorescence intensity (a.u.)
7,TTTGATCGCTTACGTTTGCGGGCCTTATGTGGTTTAGGGCCGGAGTCACCTAGTGCAG,3200 fluorescence intensity (a.u.)
8,ACGACACGTCGCCAGACAGCACCGCTGGCGACTGCCCTCCCGGAGTCACCTAGTGCAG,4500 fluorescence intensity (a.u.)
9,CACCTCCGCCTCCGCCGCCGCGCCGTGTCGAGGGATCCCGCGGAGTCACCTAGTGCAG,3160 fluorescence intensity (a.u.)
10,CATGGCCACTGGTGAGTTGGCCGTCGTACCTGTGTCGCGTCGGAGTCACCTAGTGCAG,4170 fluorescence intensity (a.u.)
11,ACCCTGGCTGCGCCGAGGCCCACCGGAACGCGGCGTGCGCCGGAGTCACCTAGTGCAG,3370 fluorescence intensity (a.u.)
12,TCCATTTGGATTGTGTCATGATTAACTAAGTCACCACGCGCGGAGTCACCTAGTGCAG,4160 fluorescence intensity (a.u.)
13,AATTAGAAACTCTCCCAACTAATACAGTGTTTATTCCAGACGGAGTCACCTAGTGCAG,25900 fluorescence intensity (a.u.)
14,TCCGGAGAAGAAGGGTTGGAGAGAGAGGATGACATGTGGGCGGAGTCACCTAGTGCAG,4010 fluorescence intensity (a.u.)
15,TACGACATGTCATTGGCCATGTCTATCTGACTTTACGTCACGGAGTCACCTAGTGCAG,4700 fluorescence intensity (a.u.)
16,TACGCGACGAATACGTGGGGTCGTGGGCCGCTTTTGCCCGCGGAGTCACCTAGTGCAG,3980 fluorescence intensity (a.u.)
17,GAGGTGGCGTGGCGGAGGTCGTCGAAGGAGATGGGGCTCTCGGAGTCACCTAGTGCAG,26400 fluorescence intensity (a.u.)
18,AAAGTGATCCAGTTTTACAAGATTATGGATGCGCTATATCCGGAGTCACCTAGTGCAG,38600 fluorescence intensity (a.u.)
19,GGGAGGGCGGCGGTGAACCATCTGCTCGAGCAAACGCGGACGGAGTCACCTAGTGCAG,5970 fluorescence intensity (a.u.)
20,GAAAATGCCACCAAACACGCCCCTCGCGTTTGACGAGATTCGGAGTCACCTAGTGCAG,3360 fluorescence intensity (a.u.)
21,AACAGAAAGGACAAGACGGGAGGGAACGGATTCTTACTCTCGGAGTCACCTAGTGCAG,4250 fluorescence intensity (a.u.)

# — PMC7819943, “Rice protein-binding microarrays: a tool to detect cis-acting elements near promoter regions in rice”
